From paper PMC11344771 come the findings set out here.

By UniProt entry, the sequences of proteins in these tests, tags left out. Where a name states a change or a piece, a line headed by the entry shows the natural chain unless it says otherwise.
UniProt Q96PY5: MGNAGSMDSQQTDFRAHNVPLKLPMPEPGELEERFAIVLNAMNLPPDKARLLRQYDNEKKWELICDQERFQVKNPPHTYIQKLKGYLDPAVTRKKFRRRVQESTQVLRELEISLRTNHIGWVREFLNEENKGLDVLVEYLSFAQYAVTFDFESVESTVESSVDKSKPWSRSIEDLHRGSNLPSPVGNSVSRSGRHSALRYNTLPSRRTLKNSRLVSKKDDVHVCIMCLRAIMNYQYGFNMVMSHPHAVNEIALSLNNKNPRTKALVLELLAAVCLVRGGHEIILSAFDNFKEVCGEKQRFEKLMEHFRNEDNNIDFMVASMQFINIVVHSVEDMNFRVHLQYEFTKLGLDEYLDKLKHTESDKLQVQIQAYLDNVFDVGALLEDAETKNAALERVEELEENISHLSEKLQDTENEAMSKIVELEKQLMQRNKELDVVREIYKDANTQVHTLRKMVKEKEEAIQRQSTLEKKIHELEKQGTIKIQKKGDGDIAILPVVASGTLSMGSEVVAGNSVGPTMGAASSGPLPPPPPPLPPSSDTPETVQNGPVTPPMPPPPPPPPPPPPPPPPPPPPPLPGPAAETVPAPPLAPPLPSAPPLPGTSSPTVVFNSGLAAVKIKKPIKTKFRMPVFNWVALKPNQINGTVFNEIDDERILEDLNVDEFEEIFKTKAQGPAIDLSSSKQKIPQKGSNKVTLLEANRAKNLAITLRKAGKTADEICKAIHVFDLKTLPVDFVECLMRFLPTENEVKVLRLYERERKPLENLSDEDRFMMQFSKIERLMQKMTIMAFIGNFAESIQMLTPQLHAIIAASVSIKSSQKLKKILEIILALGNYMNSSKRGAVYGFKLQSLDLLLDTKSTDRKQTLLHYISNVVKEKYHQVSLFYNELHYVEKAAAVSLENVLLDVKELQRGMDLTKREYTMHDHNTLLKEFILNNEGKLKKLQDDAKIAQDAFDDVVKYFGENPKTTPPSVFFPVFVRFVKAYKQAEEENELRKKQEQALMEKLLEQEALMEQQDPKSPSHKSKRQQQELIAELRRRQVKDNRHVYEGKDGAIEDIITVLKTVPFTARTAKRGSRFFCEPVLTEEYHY
UniProt P60953: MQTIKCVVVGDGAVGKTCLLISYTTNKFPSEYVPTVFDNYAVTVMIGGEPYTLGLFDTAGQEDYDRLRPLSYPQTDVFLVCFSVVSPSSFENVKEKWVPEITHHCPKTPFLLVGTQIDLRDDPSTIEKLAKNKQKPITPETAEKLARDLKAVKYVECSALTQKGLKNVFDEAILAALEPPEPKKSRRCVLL

The target of this test is FMNL2 (S171DD) fused to GST (UniProt Q96PY5). As to the kind of experiment: pull-down; Glutathione agarose, FMNL2GST as bait, equimolar test protein, 5 min RT then 30 min 4 °C, washed 6x with 50 mM Tris-HCl, 150 mM NaCl, pH 8.5; immunoblot, normalised Elution:FT ratio against GST only; both purified.

These are yes or no findings as the source states them, for the method shown. Binding can be weak; no strength is given.

As to “Cdc42 bound to a non-hydrolysable GTP analogue (Cdc42_(GppNHp)) (from UniProt P60953 1-191)”, the binding result was “binds”.
